Experimental data: PubChem BioAssay AID1508597 (Cure First, 2020)
In all, the deposit lists about 2,100 reagents; this is an unselected part. 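Calls flag viability under 80% in either arm, not effects specific to rucaparib; the reference for percent is not stated.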 A number with no mark means an inactive call. Not given: the 100% reference.

- Assay: 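Genes whose silencing sensitises or protects ovarian cancer cells against rucaparib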 (primary screen)
- Cell system: human ovarian carcinoma lines grown from tumours: OCI-P5x (papillary serous) and OCI-C5x (clear cell)
- Reagents: siRNA pool against human genes, 1.25 pmol siRNA per well
- Timing: 72 h or 96 h, depending on the cell culture
- Treatment: rucaparib 20 µM (about IC30) or vehicle, present until read-out
- Detection: 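ATP luminescence measured at 72 or 96 h according to the culture, then normalised and expressed as percent viability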
- Scale: viability, normalised: higher = more viable cells remaining
- Call rule: 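a well counts as a hit if its normalised viability is under 80 percent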
- Calls: active = viability under 80%; inactive = viability 80% or more

WNK2 [SID405527936], rucaparib or vehicle Rucaparib, cell line OCI-C5x (clear cell), technical replicate 1: viability, normalised (%) = 61.3 (active)
WNK2 [SID405527936], rucaparib or vehicle Rucaparib, cell line OCI-C5x (clear cell), technical replicate 2: viability, normalised (%) = 64.3 (active)
WNK2 [SID405527936], rucaparib or vehicle Rucaparib, cell line OCI-C5x (clear cell), technical replicate 3: viability, normalised (%) = 65.8 (active)
WNK2 [SID405527936], rucaparib or vehicle Rucaparib, cell line OCI-P5x (serous), technical replicate 1: viability, normalised (%) = 69.7 (active)
WNK2 [SID405527936], rucaparib or vehicle Rucaparib, cell line OCI-P5x (serous), technical replicate 2: viability, normalised (%) = 76.5 (active)
WNK2 [SID405527936], rucaparib or vehicle Rucaparib, cell line OCI-P5x (serous), technical replicate 3: viability, normalised (%) = 77 (active)
WNK2 [SID405527936], rucaparib or vehicle Vehicle, cell line OCI-C5x (clear cell), technical replicate 1: viability, normalised (%) = 66.4 (active)
WNK2 [SID405527936], rucaparib or vehicle Vehicle, cell line OCI-C5x (clear cell), technical replicate 2: viability, normalised (%) = 67 (active)
WNK2 [SID405527936], rucaparib or vehicle Vehicle, cell line OCI-C5x (clear cell), technical replicate 3: viability, normalised (%) = 62.6 (active)
WNK2 [SID405527936], rucaparib or vehicle Vehicle, cell line OCI-P5x (serous), technical replicate 1: viability, normalised (%) = 59.5 (active)
WNK2 [SID405527936], rucaparib or vehicle Vehicle, cell line OCI-P5x (serous), technical replicate 2: viability, normalised (%) = 54.4 (active)
WNK2 [SID405527936], rucaparib or vehicle Vehicle, cell line OCI-P5x (serous), technical replicate 3: viability, normalised (%) = 67 (active)
ATRIP [SID405528396], rucaparib or vehicle Rucaparib, cell line OCI-C5x (clear cell), technical replicate 1: viability, normalised (%) = 35.6 (active)
ATRIP [SID405528396], rucaparib or vehicle Rucaparib, cell line OCI-C5x (clear cell), technical replicate 2: viability, normalised (%) = 28.4 (active)
ATRIP [SID405528396], rucaparib or vehicle Rucaparib, cell line OCI-C5x (clear cell), technical replicate 3: viability, normalised (%) = 60.6 (active)
ATRIP [SID405528396], rucaparib or vehicle Rucaparib, cell line OCI-P5x (serous), technical replicate 1: viability, normalised (%) = 39.3 (active)
ATRIP [SID405528396], rucaparib or vehicle Rucaparib, cell line OCI-P5x (serous), technical replicate 2: viability, normalised (%) = 35.3 (active)
ATRIP [SID405528396], rucaparib or vehicle Rucaparib, cell line OCI-P5x (serous), technical replicate 3: viability, normalised (%) = 43.9 (active)
ATRIP [SID405528396], rucaparib or vehicle Vehicle, cell line OCI-C5x (clear cell), technical replicate 1: viability, normalised (%) = 39.6 (active)
ATRIP [SID405528396], rucaparib or vehicle Vehicle, cell line OCI-C5x (clear cell), technical replicate 2: viability, normalised (%) = 36.8 (active)
ATRIP [SID405528396], rucaparib or vehicle Vehicle, cell line OCI-C5x (clear cell), technical replicate 3: viability, normalised (%) = 35.2 (active)
ATRIP [SID405528396], rucaparib or vehicle Vehicle, cell line OCI-P5x (serous), technical replicate 1: viability, normalised (%) = 34.5 (active)
ATRIP [SID405528396], rucaparib or vehicle Vehicle, cell line OCI-P5x (serous), technical replicate 2: viability, normalised (%) = 45.2 (active)
ATRIP [SID405528396], rucaparib or vehicle Vehicle, cell line OCI-P5x (serous), technical replicate 3: viability, normalised (%) = 53.6 (active)

3 entries from above, set out differently.
WNK2 [SID405527936], rucaparib or vehicle Rucaparib, cell line OCI-P5x (serous), technical replicate 2
- viability, normalised (%): 76.5 (active)

WNK2 [SID405527936], rucaparib or vehicle Rucaparib, cell line OCI-P5x (serous), technical replicate 3
- viability, normalised (%): 77 (active)

WNK2 [SID405527936], rucaparib or vehicle Vehicle, cell line OCI-C5x (clear cell), technical replicate 1
- viability, normalised (%): 66.4 (active)

The list goes on.
RAD51B [SID405528361], rucaparib or vehicle Rucaparib, cell line OCI-C5x (clear cell), technical replicate 1: viability, normalised (%) = 71.4 (active)
RAD51B [SID405528361], rucaparib or vehicle Rucaparib, cell line OCI-C5x (clear cell), technical replicate 2: viability, normalised (%) = 52.8 (active)
RAD51B [SID405528361], rucaparib or vehicle Rucaparib, cell line OCI-C5x (clear cell), technical replicate 3: viability, normalised (%) = 47.5 (active)
RAD51B [SID405528361], rucaparib or vehicle Rucaparib, cell line OCI-P5x (serous), technical replicate 1: viability, normalised (%) = 86.6
RAD51B [SID405528361], rucaparib or vehicle Rucaparib, cell line OCI-P5x (serous), technical replicate 2: viability, normalised (%) = 121
RAD51B [SID405528361], rucaparib or vehicle Rucaparib, cell line OCI-P5x (serous), technical replicate 3: viability, normalised (%) = 109
RAD51B [SID405528361], rucaparib or vehicle Vehicle, cell line OCI-C5x (clear cell), technical replicate 1: viability, normalised (%) = 50.1 (active)
RAD51B [SID405528361], rucaparib or vehicle Vehicle, cell line OCI-C5x (clear cell), technical replicate 2: viability, normalised (%) = 51.2 (active)
RAD51B [SID405528361], rucaparib or vehicle Vehicle, cell line OCI-C5x (clear cell), technical replicate 3: viability, normalised (%) = 46.6 (active)
RAD51B [SID405528361], rucaparib or vehicle Vehicle, cell line OCI-P5x (serous), technical replicate 1: viability, normalised (%) = 87.6
RAD51B [SID405528361], rucaparib or vehicle Vehicle, cell line OCI-P5x (serous), technical replicate 2: viability, normalised (%) = 104
RAD51B [SID405528361], rucaparib or vehicle Vehicle, cell line OCI-P5x (serous), technical replicate 3: viability, normalised (%) = 91.4
CD40LG [SID405528080], rucaparib or vehicle Rucaparib, cell line OCI-C5x (clear cell), technical replicate 1: viability, normalised (%) = 79.7 (active)
CD40LG [SID405528080], rucaparib or vehicle Rucaparib, cell line OCI-C5x (clear cell), technical replicate 2: viability, normalised (%) = 68.5 (active)
CD40LG [SID405528080], rucaparib or vehicle Rucaparib, cell line OCI-C5x (clear cell), technical replicate 3: viability, normalised (%) = 59.6 (active)
CD40LG [SID405528080], rucaparib or vehicle Rucaparib, cell line OCI-P5x (serous), technical replicate 1: viability, normalised (%) = 113
CD40LG [SID405528080], rucaparib or vehicle Rucaparib, cell line OCI-P5x (serous), technical replicate 2: viability, normalised (%) = 97
CD40LG [SID405528080], rucaparib or vehicle Rucaparib, cell line OCI-P5x (serous), technical replicate 3: viability, normalised (%) = 94.3
CD40LG [SID405528080], rucaparib or vehicle Vehicle, cell line OCI-C5x (clear cell), technical replicate 1: viability, normalised (%) = 50.6 (active)
CD40LG [SID405528080], rucaparib or vehicle Vehicle, cell line OCI-C5x (clear cell), technical replicate 2: viability, normalised (%) = 49.6 (active)
CD40LG [SID405528080], rucaparib or vehicle Vehicle, cell line OCI-C5x (clear cell), technical replicate 3: viability, normalised (%) = 48.1 (active)
CD40LG [SID405528080], rucaparib or vehicle Vehicle, cell line OCI-P5x (serous), technical replicate 1: viability, normalised (%) = 75 (active)
CD40LG [SID405528080], rucaparib or vehicle Vehicle, cell line OCI-P5x (serous), technical replicate 2: viability, normalised (%) = 98.3
CD40LG [SID405528080], rucaparib or vehicle Vehicle, cell line OCI-P5x (serous), technical replicate 3: viability, normalised (%) = 90
